Test results: the supplement of paper PMC7666118
This is one part of the list.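 Rule for the calls: active = dose-dependent thermal stabilisation significant by F-test of dose-response against flat model at 10% FDR; inactive = not significant.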

By UniProt entry, the sequences of proteins in these tests, tags left out. Where a name states a change or a piece, a line headed by the entry shows the natural chain unless it says otherwise.
UniProt P16885: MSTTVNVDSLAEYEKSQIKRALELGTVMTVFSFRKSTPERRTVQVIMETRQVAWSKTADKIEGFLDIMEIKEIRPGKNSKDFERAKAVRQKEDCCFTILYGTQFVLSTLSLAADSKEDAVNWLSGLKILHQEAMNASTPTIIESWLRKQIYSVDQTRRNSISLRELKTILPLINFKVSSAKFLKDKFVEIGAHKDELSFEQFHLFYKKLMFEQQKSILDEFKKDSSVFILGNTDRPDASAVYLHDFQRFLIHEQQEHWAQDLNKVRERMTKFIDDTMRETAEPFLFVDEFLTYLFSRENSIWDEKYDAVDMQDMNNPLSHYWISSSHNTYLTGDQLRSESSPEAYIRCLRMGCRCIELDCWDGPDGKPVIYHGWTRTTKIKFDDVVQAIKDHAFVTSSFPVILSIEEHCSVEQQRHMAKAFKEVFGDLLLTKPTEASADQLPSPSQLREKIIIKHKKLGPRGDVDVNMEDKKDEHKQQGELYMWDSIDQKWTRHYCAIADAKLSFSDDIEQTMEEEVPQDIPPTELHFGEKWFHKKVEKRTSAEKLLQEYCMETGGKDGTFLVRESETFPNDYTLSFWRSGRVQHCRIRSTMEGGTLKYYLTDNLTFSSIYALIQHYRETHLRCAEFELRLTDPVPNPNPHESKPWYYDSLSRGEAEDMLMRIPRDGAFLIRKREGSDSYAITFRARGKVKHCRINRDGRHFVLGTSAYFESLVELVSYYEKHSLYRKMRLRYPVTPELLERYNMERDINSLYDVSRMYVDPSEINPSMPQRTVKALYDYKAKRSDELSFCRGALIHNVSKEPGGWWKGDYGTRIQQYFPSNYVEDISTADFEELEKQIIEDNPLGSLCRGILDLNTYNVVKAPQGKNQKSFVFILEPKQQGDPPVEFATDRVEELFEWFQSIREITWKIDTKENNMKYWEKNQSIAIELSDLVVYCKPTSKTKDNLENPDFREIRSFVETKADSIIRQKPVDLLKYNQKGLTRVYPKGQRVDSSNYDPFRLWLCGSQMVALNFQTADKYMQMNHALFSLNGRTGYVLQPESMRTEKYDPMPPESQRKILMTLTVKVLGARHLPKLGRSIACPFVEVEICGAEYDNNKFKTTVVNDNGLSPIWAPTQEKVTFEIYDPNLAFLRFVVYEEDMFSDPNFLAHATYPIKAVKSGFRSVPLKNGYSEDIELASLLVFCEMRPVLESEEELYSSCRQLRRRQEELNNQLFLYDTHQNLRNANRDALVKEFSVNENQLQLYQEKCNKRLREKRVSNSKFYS
UniProt Q8IWS0: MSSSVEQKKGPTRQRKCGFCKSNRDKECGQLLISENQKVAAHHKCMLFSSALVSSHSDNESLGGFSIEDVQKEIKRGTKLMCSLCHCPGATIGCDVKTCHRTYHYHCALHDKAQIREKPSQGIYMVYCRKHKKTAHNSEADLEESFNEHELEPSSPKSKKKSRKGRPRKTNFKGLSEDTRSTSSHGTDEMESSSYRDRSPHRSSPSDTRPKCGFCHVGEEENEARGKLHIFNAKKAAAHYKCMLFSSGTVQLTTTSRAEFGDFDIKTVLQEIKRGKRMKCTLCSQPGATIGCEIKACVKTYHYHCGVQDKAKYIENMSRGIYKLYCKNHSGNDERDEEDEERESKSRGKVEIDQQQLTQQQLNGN
UniProt Q9UHV9, whole entry: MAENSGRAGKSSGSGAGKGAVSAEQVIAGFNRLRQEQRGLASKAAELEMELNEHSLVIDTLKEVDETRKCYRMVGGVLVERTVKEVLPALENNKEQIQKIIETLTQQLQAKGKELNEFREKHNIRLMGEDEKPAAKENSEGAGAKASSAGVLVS
UniProt P07737, whole entry: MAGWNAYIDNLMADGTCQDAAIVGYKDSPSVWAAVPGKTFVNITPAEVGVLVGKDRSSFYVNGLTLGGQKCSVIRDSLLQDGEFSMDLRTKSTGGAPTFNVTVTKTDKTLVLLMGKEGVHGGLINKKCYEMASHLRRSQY
UniProt Q00169: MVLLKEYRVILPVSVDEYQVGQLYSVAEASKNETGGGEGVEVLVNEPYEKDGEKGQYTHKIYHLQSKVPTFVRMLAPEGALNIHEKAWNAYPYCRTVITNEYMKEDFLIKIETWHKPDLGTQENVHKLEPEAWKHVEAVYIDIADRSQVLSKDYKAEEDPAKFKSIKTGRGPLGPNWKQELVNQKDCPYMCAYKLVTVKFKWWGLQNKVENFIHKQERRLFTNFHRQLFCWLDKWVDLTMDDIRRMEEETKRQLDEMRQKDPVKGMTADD
UniProt O14802: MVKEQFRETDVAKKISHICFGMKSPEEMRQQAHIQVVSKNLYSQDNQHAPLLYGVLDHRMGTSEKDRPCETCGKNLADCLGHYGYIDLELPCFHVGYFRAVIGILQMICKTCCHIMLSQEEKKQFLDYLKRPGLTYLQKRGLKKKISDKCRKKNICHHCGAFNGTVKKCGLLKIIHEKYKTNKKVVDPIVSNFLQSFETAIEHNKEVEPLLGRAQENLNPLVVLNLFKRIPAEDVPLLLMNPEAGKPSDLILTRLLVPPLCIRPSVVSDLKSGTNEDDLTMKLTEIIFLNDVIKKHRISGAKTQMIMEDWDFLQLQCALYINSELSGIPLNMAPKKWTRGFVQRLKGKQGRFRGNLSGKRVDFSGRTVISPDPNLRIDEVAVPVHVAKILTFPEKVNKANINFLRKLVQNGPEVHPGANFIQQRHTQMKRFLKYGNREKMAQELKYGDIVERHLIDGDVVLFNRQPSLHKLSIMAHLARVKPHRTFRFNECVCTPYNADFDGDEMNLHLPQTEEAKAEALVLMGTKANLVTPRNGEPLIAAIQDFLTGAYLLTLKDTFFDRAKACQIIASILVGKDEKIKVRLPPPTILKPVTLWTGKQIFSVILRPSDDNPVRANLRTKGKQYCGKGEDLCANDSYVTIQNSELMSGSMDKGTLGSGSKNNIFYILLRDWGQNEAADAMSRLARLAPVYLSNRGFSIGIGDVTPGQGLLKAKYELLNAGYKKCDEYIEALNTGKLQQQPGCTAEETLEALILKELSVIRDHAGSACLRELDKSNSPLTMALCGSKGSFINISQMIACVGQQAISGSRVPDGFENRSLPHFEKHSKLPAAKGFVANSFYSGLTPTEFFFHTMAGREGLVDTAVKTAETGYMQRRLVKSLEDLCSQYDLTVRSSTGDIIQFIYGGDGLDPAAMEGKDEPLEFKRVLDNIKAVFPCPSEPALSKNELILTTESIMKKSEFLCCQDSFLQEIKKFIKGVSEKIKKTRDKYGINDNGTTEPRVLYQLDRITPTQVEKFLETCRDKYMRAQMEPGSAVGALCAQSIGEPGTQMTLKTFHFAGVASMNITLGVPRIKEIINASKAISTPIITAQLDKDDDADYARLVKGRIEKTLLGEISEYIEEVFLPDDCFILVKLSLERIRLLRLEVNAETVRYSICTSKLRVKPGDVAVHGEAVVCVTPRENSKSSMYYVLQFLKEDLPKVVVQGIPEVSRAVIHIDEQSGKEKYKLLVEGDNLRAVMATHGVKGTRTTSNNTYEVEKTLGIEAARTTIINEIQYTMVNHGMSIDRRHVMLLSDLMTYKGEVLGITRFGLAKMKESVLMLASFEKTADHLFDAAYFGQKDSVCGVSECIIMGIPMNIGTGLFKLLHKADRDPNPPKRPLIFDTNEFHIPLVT
UniProt Q9NRX4: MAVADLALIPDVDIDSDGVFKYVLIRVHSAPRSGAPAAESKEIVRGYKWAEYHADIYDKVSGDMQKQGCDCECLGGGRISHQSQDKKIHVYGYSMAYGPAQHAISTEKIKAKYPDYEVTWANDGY
UniProt Q9UNP9: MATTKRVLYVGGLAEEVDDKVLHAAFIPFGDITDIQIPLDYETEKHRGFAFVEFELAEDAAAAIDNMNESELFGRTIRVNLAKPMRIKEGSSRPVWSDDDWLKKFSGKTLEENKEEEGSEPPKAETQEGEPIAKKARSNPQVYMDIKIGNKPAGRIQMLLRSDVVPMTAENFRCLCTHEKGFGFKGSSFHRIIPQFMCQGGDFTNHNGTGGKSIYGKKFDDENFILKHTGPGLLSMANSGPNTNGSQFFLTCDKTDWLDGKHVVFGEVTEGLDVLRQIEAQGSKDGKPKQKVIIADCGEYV
UniProt Q13371: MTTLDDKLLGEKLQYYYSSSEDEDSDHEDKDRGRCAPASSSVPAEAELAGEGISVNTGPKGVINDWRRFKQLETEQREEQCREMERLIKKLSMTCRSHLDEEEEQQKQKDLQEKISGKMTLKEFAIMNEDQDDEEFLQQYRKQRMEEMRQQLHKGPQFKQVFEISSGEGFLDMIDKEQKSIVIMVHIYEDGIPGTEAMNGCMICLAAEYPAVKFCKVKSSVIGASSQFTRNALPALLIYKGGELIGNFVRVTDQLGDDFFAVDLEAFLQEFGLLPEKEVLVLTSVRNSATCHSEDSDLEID
UniProt P36871: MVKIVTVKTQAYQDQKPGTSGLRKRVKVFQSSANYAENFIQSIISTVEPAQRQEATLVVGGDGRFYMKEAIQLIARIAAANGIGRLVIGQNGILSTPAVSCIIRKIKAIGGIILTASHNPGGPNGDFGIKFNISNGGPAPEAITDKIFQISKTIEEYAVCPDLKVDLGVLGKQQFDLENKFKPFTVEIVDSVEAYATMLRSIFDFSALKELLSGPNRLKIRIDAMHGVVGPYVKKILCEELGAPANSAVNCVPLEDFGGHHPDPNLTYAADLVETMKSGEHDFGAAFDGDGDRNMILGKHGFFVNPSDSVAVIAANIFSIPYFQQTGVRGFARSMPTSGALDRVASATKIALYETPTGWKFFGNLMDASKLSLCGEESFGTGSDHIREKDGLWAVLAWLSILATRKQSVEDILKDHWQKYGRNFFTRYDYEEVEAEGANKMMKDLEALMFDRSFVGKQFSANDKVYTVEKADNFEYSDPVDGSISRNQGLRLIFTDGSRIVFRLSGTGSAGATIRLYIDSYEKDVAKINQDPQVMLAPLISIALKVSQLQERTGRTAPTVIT
UniProt Q13029: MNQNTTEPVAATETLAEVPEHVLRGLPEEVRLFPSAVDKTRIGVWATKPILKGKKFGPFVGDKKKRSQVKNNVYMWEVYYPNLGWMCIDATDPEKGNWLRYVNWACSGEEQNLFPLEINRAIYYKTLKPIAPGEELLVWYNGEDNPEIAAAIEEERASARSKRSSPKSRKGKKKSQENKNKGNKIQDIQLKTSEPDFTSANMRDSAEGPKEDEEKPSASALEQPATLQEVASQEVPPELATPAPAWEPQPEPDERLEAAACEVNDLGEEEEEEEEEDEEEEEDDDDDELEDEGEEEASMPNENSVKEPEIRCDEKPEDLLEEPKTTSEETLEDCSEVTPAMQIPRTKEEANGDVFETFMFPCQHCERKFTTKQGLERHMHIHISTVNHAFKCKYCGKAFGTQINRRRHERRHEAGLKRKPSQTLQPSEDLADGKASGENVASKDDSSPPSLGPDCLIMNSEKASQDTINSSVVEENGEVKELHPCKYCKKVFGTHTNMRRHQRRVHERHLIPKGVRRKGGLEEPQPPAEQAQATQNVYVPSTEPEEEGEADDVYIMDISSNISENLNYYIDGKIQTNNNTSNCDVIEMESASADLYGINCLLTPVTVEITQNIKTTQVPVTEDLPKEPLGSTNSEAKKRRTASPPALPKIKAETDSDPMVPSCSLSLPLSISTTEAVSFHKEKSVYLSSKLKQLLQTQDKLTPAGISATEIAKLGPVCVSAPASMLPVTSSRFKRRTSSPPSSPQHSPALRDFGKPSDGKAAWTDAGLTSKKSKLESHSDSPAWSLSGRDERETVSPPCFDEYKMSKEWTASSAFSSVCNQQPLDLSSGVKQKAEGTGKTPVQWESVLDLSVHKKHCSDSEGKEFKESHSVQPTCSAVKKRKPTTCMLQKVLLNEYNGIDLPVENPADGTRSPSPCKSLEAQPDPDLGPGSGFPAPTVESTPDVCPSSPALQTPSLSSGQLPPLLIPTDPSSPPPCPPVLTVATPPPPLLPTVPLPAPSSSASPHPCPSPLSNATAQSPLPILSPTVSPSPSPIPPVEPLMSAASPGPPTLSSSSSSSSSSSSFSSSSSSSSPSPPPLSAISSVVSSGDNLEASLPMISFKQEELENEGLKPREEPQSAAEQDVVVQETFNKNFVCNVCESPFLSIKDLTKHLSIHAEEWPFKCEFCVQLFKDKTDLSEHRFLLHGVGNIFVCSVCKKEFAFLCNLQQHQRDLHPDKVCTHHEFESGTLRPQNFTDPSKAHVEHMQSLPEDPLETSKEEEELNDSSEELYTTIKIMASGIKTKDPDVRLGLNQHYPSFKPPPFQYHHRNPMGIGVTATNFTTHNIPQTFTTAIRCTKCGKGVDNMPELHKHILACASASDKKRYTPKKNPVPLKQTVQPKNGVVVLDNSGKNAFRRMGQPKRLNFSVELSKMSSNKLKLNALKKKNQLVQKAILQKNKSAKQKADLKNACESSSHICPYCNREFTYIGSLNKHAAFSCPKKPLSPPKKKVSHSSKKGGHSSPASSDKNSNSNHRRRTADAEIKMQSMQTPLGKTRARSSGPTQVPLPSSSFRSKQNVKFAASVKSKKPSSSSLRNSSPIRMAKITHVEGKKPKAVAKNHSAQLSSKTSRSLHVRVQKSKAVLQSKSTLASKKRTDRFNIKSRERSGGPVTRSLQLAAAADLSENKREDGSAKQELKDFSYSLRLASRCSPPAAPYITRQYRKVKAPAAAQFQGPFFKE

compound: Nc1nc2c(ncn2[C@@H]2O[C@H](COP(=O)(O)OP(=O)(O)OP(=O)(O)O)[C@@H](O)[C@H]2O)c(=O)[nH]1; test: dose-dependent thermal stabilisation call (2D-TPP, DLPTP, 10% FDR) (binary (1 = stabilised)); higher = stabilised by the compound; conditions: system: Jurkat gel-filtered lysate; concentration range 1-500 µM

Row | Target | dose-dependent thermal stabilisation call
1 | PLCG2 (UniProt P16885) | active: 1
2 | PDE6D (UniProt O43924) | active: 1
3 | PPWD1 (UniProt Q96BP3) | active: 1
4 | PHF6 (UniProt Q8IWS0) | inactive: 0
5 | PPP2R5A (UniProt Q15172) | inactive: 0
6 | PCBD2 (UniProt Q9H0N5) | inactive: 0
7 | POLR2H (UniProt P52434) | inactive: 0
8 | PIN1 (UniProt Q13526) | inactive: 0
9 | PFDN2 (UniProt Q9UHV9) | inactive: 0
10 | PPCDC (UniProt Q96CD2) | inactive: 0
11 | PPP1R12C (UniProt Q9BZL4) | inactive: 0
12 | PFN1 (UniProt P07737) | active: 1
13 | PGGHG (UniProt Q32M88) | inactive: 0
14 | PRDX6 (UniProt P30041) | inactive: 0
15 | POLR2I (UniProt P36954) | inactive: 0
16 | PRDX2 (UniProt P32119) | inactive: 0
17 | PITPNA (UniProt Q00169) | inactive: 0
18 | PEAK1 (UniProt Q9H792) | inactive: 0

Row | Target | dose-dependent thermal stabilisation call
19 | PGM2 (UniProt Q96G03) | inactive: 0
20 | PDE4DIP (UniProt Q5VU43) | inactive: 0
21 | PDS5A (UniProt Q29RF7) | inactive: 0
22 | PLS1 (UniProt Q14651) | inactive: 0
23 | POLR3A (UniProt O14802) | inactive: 0
24 | PML (UniProt P29590) | active: 1
25 | PPP2R1A (UniProt P30153) | inactive: 0
26 | PHPT1 (UniProt Q9NRX4) | inactive: 0
27 | PFAS (UniProt O15067) | inactive: 0
28 | PPAT (UniProt Q06203) | inactive: 0
29 | PLRG1 (UniProt O43660) | inactive: 0
30 | PPIE (UniProt Q9UNP9) | inactive: 0
31 | PDCL (UniProt Q13371) | inactive: 0
32 | PINX1 (UniProt Q96BK5) | inactive: 0
33 | PGM1 (UniProt P36871) | inactive: 0
34 | PRDM2 (UniProt Q13029) | inactive: 0
35 | POLR2D (UniProt O15514) | inactive: 0
36 | PDCL3 (UniProt Q9H2J4) | inactive: 0

In a second layout: results already given.
Row	Target	dose-dependent thermal stabilisation call
30	PPIE (UniProt Q9UNP9)	inactive: 0
31	PDCL (UniProt Q13371)	inactive: 0
32	PINX1 (UniProt Q96BK5)	inactive: 0
